Results are given in words; binding and its absence hold for the method and conditions named. Some binding calls cover weakened binding; strength is not graded here.
Biological target: MUC1-C (extracellular MUC1-C construct expressed on cells) (human) (UniProt P15941)
Assay: epitope test by CAR-T degranulation against unmodified and MUC1-transfected cells, FIG. 15

Chains of the proteins cited; added tags and fusions are not shown. Lines headed by an entry give the natural chain unless they say otherwise; changes in a name come on top.
UniProt P15941: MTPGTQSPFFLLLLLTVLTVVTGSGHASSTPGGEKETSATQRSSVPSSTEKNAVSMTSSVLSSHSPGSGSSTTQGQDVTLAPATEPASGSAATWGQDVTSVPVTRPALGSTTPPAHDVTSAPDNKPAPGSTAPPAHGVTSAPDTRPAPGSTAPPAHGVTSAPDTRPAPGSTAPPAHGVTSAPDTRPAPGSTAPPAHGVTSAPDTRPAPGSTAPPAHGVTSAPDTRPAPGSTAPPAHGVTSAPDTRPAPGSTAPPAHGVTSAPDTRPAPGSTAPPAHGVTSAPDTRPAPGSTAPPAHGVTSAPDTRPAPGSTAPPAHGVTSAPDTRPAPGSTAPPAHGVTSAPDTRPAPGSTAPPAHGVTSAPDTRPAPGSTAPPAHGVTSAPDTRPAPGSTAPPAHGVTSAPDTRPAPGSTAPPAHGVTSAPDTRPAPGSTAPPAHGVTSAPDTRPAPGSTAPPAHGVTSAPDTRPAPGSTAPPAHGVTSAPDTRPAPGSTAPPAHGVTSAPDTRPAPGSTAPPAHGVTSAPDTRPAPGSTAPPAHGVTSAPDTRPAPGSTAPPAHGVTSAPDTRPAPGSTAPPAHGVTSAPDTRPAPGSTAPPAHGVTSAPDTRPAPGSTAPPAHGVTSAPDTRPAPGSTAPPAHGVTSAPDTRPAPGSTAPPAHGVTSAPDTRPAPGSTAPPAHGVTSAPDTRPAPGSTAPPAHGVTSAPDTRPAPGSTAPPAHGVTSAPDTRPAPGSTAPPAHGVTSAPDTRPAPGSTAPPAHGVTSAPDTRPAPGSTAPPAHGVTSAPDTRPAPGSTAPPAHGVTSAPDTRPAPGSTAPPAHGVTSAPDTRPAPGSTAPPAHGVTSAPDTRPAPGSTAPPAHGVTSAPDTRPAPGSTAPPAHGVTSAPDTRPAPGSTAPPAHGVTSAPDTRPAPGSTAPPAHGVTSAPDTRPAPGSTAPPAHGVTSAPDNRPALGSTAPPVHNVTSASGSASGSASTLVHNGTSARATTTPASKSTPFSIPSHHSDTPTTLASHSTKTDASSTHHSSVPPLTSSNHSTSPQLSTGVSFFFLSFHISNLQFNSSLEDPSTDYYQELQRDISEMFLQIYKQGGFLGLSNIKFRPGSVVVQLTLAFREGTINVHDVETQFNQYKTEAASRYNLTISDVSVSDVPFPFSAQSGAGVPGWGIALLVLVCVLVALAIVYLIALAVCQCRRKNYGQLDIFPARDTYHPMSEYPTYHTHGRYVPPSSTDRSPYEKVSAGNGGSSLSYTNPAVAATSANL

B1: F1C-HL CAR (MUC1-scFv chimeric antigen receptor) (scFv, not shown: a dimerising Fc or GST)
scFv: QITLKESGPGILQPSQTLSLTCSFSGFSLSTSGMGVSWIRQPSGKGLEWLSHIYWDDDKRYNPSLKSRLSISKDTSRNQVFLKITSVDTADTATYYCAPGVSSWFPYWGPGTLVTVSAGGGGSGGGGSGGGGSSIVMTQTPKFLPVSAGDRVTVTCKASQSVGNYVAWYQQKPGQSPKLLIYFASNRYSGVPDRFTGSGSGTDFTFTISSVQVEDLAVYFCQQHYIFPYTFGSGTKLEIK
Q: How did the binding turn out when B1 was run?
A: binds

B2: K2B-HL CAR (MUC1-scFv chimeric antigen receptor) (scFv, not shown: a dimerising Fc or GST)
scFv: QVQLKESGPGLVAPSQSLSMTCTVSGFSLTTYGVHWVRQPPGKGLEWLVVIWSDGSTTYNSPLKSRLSISRDNSKSQVFLKMNSLQADDTAIYYCAKNYLGSLDYWGQGTSVTVSSGGGGSGGGGSGGGGSDVVLTQTPLSLPVSLGDQASISCRSSQSLVHNNGDTYLHWYLQKPGQSPKLLIYKVSNRFSGVPDRFSGSGSGTDFTFKISRVEAEDLGVYFCSQTTHVPLTFGAGTKLELK
Q: For B2, which binding is on record?
A: binds
